Source: PubChem BioAssay AID1259254 (NCATS, 2017)
Here is one part, drawn at random, of about 59,000 reagents tested. Of all reagents, about 1,550 (2.6%) got an active call. 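G2 share is only a proxy for re-replication; each gene was hit by three separate siRNAs, and active genes were retested.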 Unmarked entries are inactive. Reagents against one gene are numbered here. Further read-outs or replicates are left out here. Not given: the amount of reagent.

Aim: 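Genome-wide screen for genes that prevent DNA re-replication in cancer cells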 (primary screen)
Cells: human HCT116 colorectal cancer cells
Reagent: single siRNA against human genes
Time to read-out: 3 days
Measured: 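Nuclei stained with Hoechst and imaged; cell-cycle phase assigned by DNA content; G2 share scaled per plate, non-targeting siRNA 0%, GMNN siRNA 100%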
Direction: G2 robust z-score: higher = more G2 cells, more excess DNA replication
Rule for the call: 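Active siRNAs have a G2 robust z of 5 or more median absolute deviations over the median, which in these data means about 38% or higher of GMNN control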

no.	gene	reagent	G2 robust z-score
1	METTL17 (methyltransferase like 17)	1	-0.162
2	METTL17 (methyltransferase like 17)	2	6.19 (active)
3	METTL17 (methyltransferase like 17)	3	10.7 (active)
4	LRP5L (LDL receptor related protein 5 like (pseudogene))	1	-0.478
5	LRP5L (LDL receptor related protein 5 like (pseudogene))	2	-0.323
6	LRP5L (LDL receptor related protein 5 like (pseudogene))	3	-0.299
7	PI4K2B (phosphatidylinositol 4-kinase type 2 beta)	1	-1.18
8	PI4K2B (phosphatidylinositol 4-kinase type 2 beta)	2	-0.616
9	PI4K2B (phosphatidylinositol 4-kinase type 2 beta)	3	-0.415
10	CASTOR3P (CASTOR family member 3, pseudogene)	1	-0.859
11	CASTOR3P (CASTOR family member 3, pseudogene)	2	-0.118
12	CASTOR3P (CASTOR family member 3, pseudogene)	3	0.425
13	LPIN2 (lipin 2)	1	-0.424
14	LPIN2 (lipin 2)	2	-0.225
15	LPIN2 (lipin 2)	3	-1.01
16	TREML3P	1	0.322
17	TREML3P	2	-0.412
18	TREML3P	3	-1.12
19	RETSAT (retinol saturase)	1	1.83
20	RETSAT (retinol saturase)	2	-0.56
21	RETSAT (retinol saturase)	3	2.94
22	CBLC (Cbl proto-oncogene C)	1	0.0672
23	CBLC (Cbl proto-oncogene C)	2	-0.0251
24	CBLC (Cbl proto-oncogene C)	3	-0.324
25	OTOP1 (otopetrin 1)	1	-1.16
26	OTOP1 (otopetrin 1)	2	0.309
27	OTOP1 (otopetrin 1)	3	-0.135
28	KRTAP5-2 (keratin associated protein 5-2)	1	3.87
29	KRTAP5-2 (keratin associated protein 5-2)	2	-0.313
30	KRTAP5-2 (keratin associated protein 5-2)	3	0.729
31	HTR6 (5-hydroxytryptamine receptor 6)	1	-1.11
32	HTR6 (5-hydroxytryptamine receptor 6)	2	5.12 (active)
33	HTR6 (5-hydroxytryptamine receptor 6)	3	4.95
34	HHIPL1 (HHIP like 1)	1	1.58
35	HHIPL1 (HHIP like 1)	2	-0.458
36	HHIPL1 (HHIP like 1)	3	-1.13
37	FAM178B (family with sequence similarity 178 member B)	1	-0.197
38	FAM178B (family with sequence similarity 178 member B)	2	0.235
39	FAM178B (family with sequence similarity 178 member B)	3	-0.753
40	HNRNPA1P4 (heterogeneous nuclear ribonucleoprotein A1 pseudogene 4)	1	-0.425
41	HNRNPA1P4 (heterogeneous nuclear ribonucleoprotein A1 pseudogene 4)	2	0.0348
42	HNRNPA1P4 (heterogeneous nuclear ribonucleoprotein A1 pseudogene 4)	3	-0.653
43	EDC4 (enhancer of mRNA decapping 4)	1	-0.201
44	EDC4 (enhancer of mRNA decapping 4)	2	1.08
45	EDC4 (enhancer of mRNA decapping 4)	3	0.102
46	MAML2 (mastermind like transcriptional coactivator 2)	1	-0.627
47	MAML2 (mastermind like transcriptional coactivator 2)	2	-1.38
48	MAML2 (mastermind like transcriptional coactivator 2)	3	-0.156
49	ELSPBP1 (epididymal sperm binding protein 1)	1	-1.25
50	ELSPBP1 (epididymal sperm binding protein 1)	2	0.55
51	ELSPBP1 (epididymal sperm binding protein 1)	3	-0.462
52	ZMAT5 (zinc finger matrin-type 5)	1	1.55
53	ZMAT5 (zinc finger matrin-type 5)	2	1.99
54	ZMAT5 (zinc finger matrin-type 5)	3	-0.0824
55	CFHR2 (complement factor H related 2)	1	-0.0795
56	CFHR2 (complement factor H related 2)	2	0.718
57	CFHR2 (complement factor H related 2)	3	-0.106
58	ARNT (aryl hydrocarbon receptor nuclear translocator)	1	-0.932
59	ARNT (aryl hydrocarbon receptor nuclear translocator)	2	-0.343
60	ARNT (aryl hydrocarbon receptor nuclear translocator)	3	-0.39
61	TRAP1 (TNF receptor associated protein 1)	1	0.169
62	TRAP1 (TNF receptor associated protein 1)	2	1.71
63	TRAP1 (TNF receptor associated protein 1)	3	-0.0244
64	TSPAN4 (tetraspanin 4)	1	1.2
65	TSPAN4 (tetraspanin 4)	2	1.82
66	TSPAN4 (tetraspanin 4)	3	0.328
67	RPS3AP49 (RPS3A pseudogene 49)	1	0.709
68	RPS3AP49 (RPS3A pseudogene 49)	2	-0.458
69	RPS3AP49 (RPS3A pseudogene 49)	3	-0.151

Not a retest: entries from further up.
no.	gene	reagent	G2 robust z-score
51	ELSPBP1 (epididymal sperm binding protein 1)	3	-0.462
52	ZMAT5 (zinc finger matrin-type 5)	1	1.55
53	ZMAT5 (zinc finger matrin-type 5)	2	1.99
54	ZMAT5 (zinc finger matrin-type 5)	3	-0.0824
55	CFHR2 (complement factor H related 2)	1	-0.0795
